Hit rate of the full screen: of about 340,000 compounds, about 6,200 (1.8%) were called active. The inconclusive results got no clear call from the source; some entries with a clear call stand among them for comparison. Calls come from the whole dose curve; as a rule, active = well fitted activation curve with a large enough effect; inconclusive = small, poorly fitted or top-dose-only effect; inactive = no such curve, though single readings can be large or run the other way. Where the call is inconclusive, the potency comes from a doubtful curve fit.
assay: A quantitative high throughput screen for small molecules that induce DNA re-replication in SW480 colon adenocarcinoma cells.; note: nearly all actives have a fitted effect of over 55% in size; for re-replication activation: % of control where 0% means no effect; conditions: Hoechst DNA content imaging, 48 h; re-replication activation: at 46.1 µM (top of the series) unless noted
In short: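 Image-based DNA-content assay: after two days of treatment, nuclei were labelled with the DNA dye Hoechst and imaged, and hits were compounds raising the count of nuclei showing high fluorescence intensity.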
Potency is the fitted concentration of half-maximal effect.

SMILES | Potency | re-replication activation
CN(CC(=O)Nc1ccc(Cl)cc1)C(=O)CCc1nc2sc3c(c2c(=O)[nH]1)CCCC3 | inconclusive: 20.6 µM [activator, partial curve, poor fit] | –
CCOc1ccccc1C(=O)N[C@H](C(=O)Nc1nc2c(s1)CCCC2)C(C)C | inconclusive: 18.4 µM [activator, single point] | –
COC(=O)/C(=C\Nc1ccc(OC)cc1)NC(=O)c1ccc(Cl)cc1Cl | inactive | –
Clc1nccc(N2CCN(c3ccccc3Cl)CC2)n1 | inconclusive: 29.1 µM [activator, single point] | –
COc1ccc2cnn(CCOc3cc(C)ccc3C(C)C)c(=O)c2c1OC | inconclusive: 20.6 µM [activator, partial curve, poor fit] | –
COc1ccc(OC)c(NC(=O)COC(=O)c2cc3c(s2)CCC3)c1 | inconclusive: 29.1 µM [activator, single point] | –
N#CC1=C(N)Oc2cc(N)ccc2C1c1cccc(Br)c1 (configuration not stated) | inconclusive: 0.651 µM [activator, partial curve, poor fit] | –
COc1ccc(C(=O)C=Cc2cccs2)c(O)c1 | inconclusive: 16.4 µM [activator, partial curve, poor fit] | –
CCCC(C)Sc1nc2c([nH]1)c(=S)n(C)c(=O)n2C (configuration not stated) | inconclusive: 18.4 µM [activator, partial curve, poor fit] | –
Cn1c(=O)c2c(nc(-n3ccnc3)n2Cc2ccccc2)n(C)c1=O | inconclusive: 32.6 µM [activator, single point] | –
O=C(CN(C(=O)c1ccccc1Cl)C1CCCCC1)Nc1ccc(Cl)c([N+](=O)[O-])c1 | inconclusive: 23.1 µM [activator, partial curve, poor fit] | –
CCOc1cc(CNc2ccc(Br)cc2)cc(Br)c1OCC(=O)NC(C)(C)C | inactive | –
O=C(Nc1nnc(SCc2ccccc2Cl)s1)C1COc2ccccc2O1 (configuration not stated) | inactive | –
COc1ccccc1NC(=O)CSc1nnnn1-c1ccccc1F | inconclusive: 0.651 µM [activator, full curve, poor fit] | –
O=C1C(Cl)=C(N2CCCC2)C(=O)N1c1ccccc1F | inconclusive: 1.64 µM [activator, full curve, poor fit] | –
CN(C)CCCN(Cc1cc2cc3c(cc2[nH]c1=O)OCO3)C(=S)Nc1ccccc1 | inactive | –
O=C(Cn1nnc(-c2ccccc2F)n1)Nc1ccc2c(c1)OCCO2 | inactive | –
CC(Sc1nnnn1-c1ccc(O)cc1)c1nc2ccccc2c(=O)[nH]1 (configuration not stated) | inconclusive: 0.517 µM [activator, partial curve, poor fit] | –
CCc1ccc(Nc2ncc3c(n2)CC(c2ccc(OC)cc2)CC3=O)cc1 (configuration not stated) | active: 20.6 µM | –
Cc1ccc(S(=O)(=O)N2CCCCC2)cc1NC(=O)CSc1ncccn1 | inconclusive: 0.82 µM [activator, full curve, poor fit] | –
Cn1cc(C(=O)c2ccc(Cl)cc2Cl)cc1C(=O)N/N=C(\N)COc1ccc(Cl)cc1 | inconclusive: 0.517 µM [activator, full curve] | –
CCCCOC(=O)CSc1nc2ccccc2o1 | inactive | –
COC(C[C@@H]1O[C@@H]1C(=O)COCc1ccccc1)OC | inactive | –
S=C(Nc1cc(Cl)cc(Cl)c1)NC1CCN(Cc2ccccc2)CC1 | inconclusive: 20.6 µM [activator, single point] | –

SMILES | Potency | re-replication activation
CCOc1ccccc1OCC(=O)Nc1cc(S(=O)(=O)N2CCCCC2)ccc1OC | inconclusive: 10.3 µM [activator, single point] | –
CCCCCn1ccc(=N)cc1 | inactive | –
CCCCC(=O)NNC(=S)NCc1ccccc1 | inactive | –
NC1=NOC(=O)C1C1CCCCC1 (configuration not stated) | inactive | –
CCCCN1C(=O)C(=O)c2cc(Cl)ccc21 | inconclusive: 6.51 µM [activator, partial curve] | –
CC1CCN(C(=O)CCCN2C(=O)c3cccnc3Oc3ccc(Cl)cc32)CC1 | inconclusive: 1 µM [activator, full curve, poor fit] | –
CCCCN(C(=O)c1cccc(S(=O)(=O)N(CC)c2ccccc2)c1)c1c(N)n(CC(C)C)c(=O)[nH]c1=O | inactive | –
COc1ccc(C(=O)NCCNc2nc3c(C)cccc3cc2C#N)cc1OC | active: 2.59 µM | –
Cc1ccc(Oc2ccc(C(=O)NCc3ccncc3)cc2)cc1 | inactive | –
BrC(=C\c1ccccc1)/C=N/N1CCN(c2ccccn2)CC1 | inconclusive: 29.1 µM [activator, single point] | –
Cc1[nH]c2ccccc2c1C(=O)NS(=O)(=O)Nc1ccccc1 | inconclusive: 29.1 µM [activator, single point] | –
COC(=O)c1cc2ccc(OC)cc2c2cc(OC)c(OC)cc12 | inactive | –
COc1cc(S(=O)(=O)NCc2ccc3c(c2)OCO3)ccc1F | inactive | –
CN1C(=O)C2(OCC(CO)([N+](=O)[O-])CO2)c2ccccc21 (configuration not stated) | inconclusive: 3.26 µM [activator, full curve, poor fit] | –
COCC(O)CNc1ccccc1 (configuration not stated) | inconclusive: 0.146 µM [activator, full curve, poor fit] | –
Cc1ccc(CNC(=O)C2CCC(=O)N(C3CCCC3)C2)c(F)c1F (configuration not stated) | inconclusive: 0.0046 µM [activator, full curve, poor fit] | –
COc1cccc(CNC(=O)c2cc3c(cc2Cl)N2CCCCCC2=NS3(=O)=O)c1 | inactive | –
Cc1cc(OCC(=O)N[C@@H](Cc2ccccc2)c2nc3ccccc3[nH]2)ccc1Cl | inactive | –
O=C(Nc1ccc(SC(F)F)cc1)c1ccc2nccnc2c1 | inconclusive: 29.1 µM [activator, single point] | –
COc1cc(OC)nc(Oc2cc(/C=N/O)ccc2OC)n1 | active: 11.6 µM | –
CCOC(=O)/C(=N/Nc1ccccc1)Sc1nnc(CCc2ccccc2)n1-c1ccccc1 | inactive | –
COc1ccc(N(CC(=O)Nc2nc3ccc(C)cc3s2)S(=O)(=O)c2c(C)nn(C)c2C)cc1 | inconclusive: 29.1 µM [activator, single point] | –
CCOc1ccc(NC(=O)CN2CCN(CC(=O)Nc3ccc(C(N)=O)cc3)CC2)cc1 | inactive | –
O=[N+]([O-])c1cccc(S(=O)(=O)N2CCCCC2c2cccnc2)c1 (configuration not stated) | inactive | –

Look-ups from the results shown:
`COc1cccc(CNC(=O)c2cc3c(cc2Cl)N2CCCCCC2=NS3(=O)=O)c1` – Potency: inactive
`CCCC(C)Sc1nc2c([nH]1)c(=S)n(C)c(=O)n2C` (configuration not stated) – Potency: inconclusive: 18.4 µM [activator, partial curve, poor fit]
`CCCCCn1ccc(=N)cc1` – Potency: inactive

Later entries

SMILES | Potency | re-replication activation
O=C(Nc1cccc2ncccc12)c1ccc([N+](=O)[O-])o1 | active: 1.46 µM | –
COc1ccc(NC(=O)C(c2ccccc2)N2CCN(c3ccccn3)CC2)cc1Cl (configuration not stated) | inconclusive: 16.4 µM [activator, partial curve, poor fit] | –
COC(=O)c1cc(S(=O)(=O)N2CCC(c3ccccc3)C2)c[nH]1 (configuration not stated) | inconclusive: 5.8 µM [activator, full curve, poor fit] | –
CCN1CC(CN(C)Cc2nc(-c3ccco3)oc2C)CC1=O (configuration not stated) | inconclusive: 0.206 µM [activator, full curve] | –
Cc1onc(-c2ccccc2Cl)c1C(=O)N1CCN(c2cccc(Cl)c2)CC1 | active: 7.31 µM | –
COc1ccc(F)cc1S(=O)(=O)N1CCN(c2ccccn2)CC1 | inconclusive: 2.06 µM [activator, full curve, poor fit] | –
COc1cccc(NC(=O)CN(C)C(=O)c2cc(C3CC3)nn2-c2ccccc2)c1 | inconclusive: 0.0052 µM [activator, full curve, poor fit] | –
CCOC(=O)c1nc(-c2ccc3c(c2)OCO3)[nH]c1C | inconclusive: 29.1 µM [activator, single point] | –
Fc1ccc(CSc2nnc3ccccn23)c(Cl)c1 | inconclusive: 2.91 µM [activator, partial curve, poor fit] | –
Clc1ccccc1-c1nnc(-c2cccs2)o1 | inactive | –
CCOC(=O)Cn1c(=O)n(Cc2ccc(C)cc2)c(=O)c2cccnc21 | – | inconclusive: 71.8% [activator]
CCOC(=O)C(/C(C)=N/NC(=O)C1CC1c1ccccc1)C(C)C (configuration not stated) | inconclusive: 11.6 µM [activator, partial curve, poor fit] | –
CC(C)(C)c1ccc(C(=O)NCc2ccc(Cl)cc2)cc1 | inconclusive: 18.4 µM [activator, partial curve, poor fit] | –
CCn1c(C)cc(C=C2C(=O)c3ccccc3C2=O)c1C | inconclusive: 29.1 µM [activator, single point] | –
Cn1c(=O)c(C(=O)NNC(=O)c2cccc(Cl)c2)c(O)c2ccccc21 | active: 9.2 µM | –
O=C1CC(CSc2ccc(Cl)cc2)=NN1 | inactive | –
CN1CCN(c2nc(-c3cccnc3)nc3ccccc23)CC1 | inconclusive: 16.4 µM [activator, single point] | –
CN(C(=O)c1cc2nc(-c3ccco3)cc(C(F)(F)F)n2n1)C1CCCCC1 | inconclusive: 29.1 µM [activator, single point] | –
Cc1ccccc1OCCC(=O)Nc1ccc(S(=O)(=O)N(C)C2CCN(C)CC2)cc1 | inconclusive: 29.1 µM [activator, single point] | –
O=C1Nc2ccc(Br)cc2C1=C1CCCCC1 | inconclusive: 29.1 µM [activator, single point] | –
CCn1c(SCC(=O)Nc2ccccc2-c2ccccc2)nnc1-c1ccoc1C | inconclusive: 29.1 µM [activator, single point] | –
COc1ccc2[nH]cc(CCCN3C(=O)c4ccccc4C3=O)c2c1 | inconclusive: 16.4 µM [activator, single point] | –
O=S(=O)(c1ccccc1)N1CCN(C(=S)Nc2ccc(Br)cc2)CC1 | inactive | –
CCOC(=O)CNC(c1ccccc1)c1cc(Br)ccc1NC(C)=O (configuration not stated) | active: 2.91 µM | –
